Among all 320,000 compounds or so, about 2,100 (0.66%) were called active. Inconclusive means that the source gave no clear call. Such entries were picked first, then a sample of the others. Calls follow the shape of the dose curve; as a rule, active = well fitted inhibition curve with a large enough effect in the signal ratio, with a control signal flat (not every such curve was filed as active); inconclusive = small, poorly fitted or top-dose-only effect, or effect the other way, or a change in a side signal; inactive = flat fitted curve, though single readings scatter; the % refers to the signal ratio. Potencies beside an inconclusive call are fits to weak or partial responses and may not hold up.
Test: qHTS Assay for Lipid Storage Modulators in Drosophila S3 Cells
Details: BODIPY lipid droplet fluorescence, 18-24 h, cells fed with added oleic acid; lipid storage change, negative = inhibition: at 46.1 µM (top of the series) unless noted
Outline: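 Drosophila S3 cells loaded with oleic acid (400 uM, as added) and compounds at several concentrations; lipid droplets imaged by 488-nm laser-scanning cytometry, 500–530 nm intensity and object ratio to cell channel. Percent activity normalized to 20 uM Triacsin C.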
% is scaled to controls: 0 for no effect and ±100 for the full control effect; potency is read from the fitted curve at half-maximal effect.

Structure (SMILES) | lipid storage change, negative = inhibition | Potency
CSCCC(NC(=O)c1ccco1)C(=O)Nc1ccc(C)c(S(=O)(=O)N2CCOCC2)c1 (stereo not given) | inconclusive: 35.2% | –
Cc1ccc(CN2Cc3cccc4c3[C@@H](CC2=O)[C@H](O)[C@H](O)C4)cc1 | – | inconclusive: 18.4 µM [activator, single point]
Cc1ccc(-c2cc(C(=O)Nc3ccccn3)c3ccccc3n2)o1 | inconclusive: 1.65% | –
CC(C)CN(C(=O)CSc1n[nH]c(-c2cccs2)n1)C1CCS(=O)(=O)C1 (stereo not given) | inconclusive: -15.3% | –
COC(=O)CCSCC(=O)Nc1ccc(C)c(S(=O)(=O)N2CCCCC2)c1 | inconclusive: 8.29% | –
CC1CN(C(=O)c2ccc(NS(=O)(=O)c3ccc(C(C)(C)C)cc3)cc2)CC(C)O1 (stereo not given) | – | inconclusive: 29.1 µM [falling, partial curve, poor fit]
Cc1cc2nc(Cl)c(Cl)nc2cc1C | – | inconclusive: 10.3 µM [falling, partial curve]
COc1ccccc1NC(=O)Nc1ccccc1N1CCOCC1 | inconclusive: -20.6% | –
Cc1ccc(NC(=O)c2ccc(Oc3ncccn3)cc2)cc1 | – | inconclusive: 6.51 µM [falling, single point]
COc1ccc(/C=C/C2=NN(Cc3ccccc3)C(=O)CC2)cc1 | – | inconclusive: 13 µM [activator, single point]
CC(C)(C)NC(=O)CN(C(=O)C(=O)Nc1ccc2c(c1)OCCO2)C1CCCC1 | – | inconclusive: 0.58 µM [falling, single point]
Cc1cc(C)n2nc(C(=O)OCC(=O)NC3CCCCC3)nc2n1 | inconclusive | –
Cc1ccc(-n2c(C)cc(/C=N/NC(=O)c3ccncc3)c2C)c(C)c1 | – | active: 18.4 µM
Cc1ccc(C(=O)NCCCNC(=O)COc2ccccc2Cl)cn1 | inconclusive: -17.9% | –
O=C(CN1CCOCC1)Nc1ccccc1C(=O)O | – | inconclusive: 0.0651 µM [falling, full curve, poor fit]
CN(C)CCN1C(=O)C(=O)/C(=C(/O)c2ccc(S(=O)(=O)N3CCOCC3)cc2)C1c1ccc(Br)cc1 (stereo not given) | – | inconclusive: 0.82 µM [activator, full curve, poor fit]
COc1ccc(S(=O)(=O)NCCC(C)C)cc1OC | inconclusive: 31.7% | –
COc1ccc(-c2nn(-c3ccccc3)cc2/C=C(\CC(=O)O)c2nc3ccccc3s2)cc1OC | inconclusive: 10.9% | –
Cc1ccc(-n2c(C)c(C)c3c(N)ncnc32)cc1 | inconclusive: -23.5% | –
CCCCCCc1ccc(OCC(=O)OC)cc1OCC(=O)OC | – | inconclusive: 29.1 µM [activator, single point]
CCCC(=O)NC(c1ccc(N(C)C)cc1)c1ccc2cccnc2c1O (stereo not given) | inconclusive: 13.4% | –
COc1ccccc1-c1c(C(F)(F)F)oc2cc(OCC(=O)Nc3ccccc3C(F)(F)F)ccc2c1=O | inconclusive: -24.7% | –
CC(=O)c1cccc(OCCCOc2cccc3cccnc23)c1 | inconclusive: 53.6% | –
CCN1CCc2c(OCC(=O)Nc3ccc4c(c3)OCCO4)cccc2C1=O | inconclusive: -3.26% [at 9.22 µM] | –
Cc1ccc(NCC(=O)c2ccc(C)cc2)cc1 | – | inconclusive: 11.6 µM [falling, single point]

Structure (SMILES) | lipid storage change, negative = inhibition | Potency
CCOC(=O)c1c(N)nn(C(=O)C(C)(C)C)c1-c1ccccc1 | – | inconclusive: 0.092 µM [activator, full curve, poor fit]
COc1ccc(NC(=O)NC2CCCc3ccccc32)c(OC)c1 (stereo not given) | inconclusive: -100% | –
COc1cc(OC)c(N(C)S(=O)(=O)c2cccc(C(=O)Nc3nc(C)cs3)c2)cc1Cl | inconclusive: 3.72% | –
O=C(NCC1COc2ccccc2O1)C1CCCN(S(=O)(=O)c2cccc3cccnc23)C1 (stereo not given) | – | inconclusive: 29.1 µM [falling, single point]
CCCN(CC(=O)Nc1ccccc1C)C(=O)/C=C/c1ccc(S(=O)(=O)N2CCCCCC2)cc1 | inconclusive: 21.7% | –
COc1cc(C2C(C#N)=C(N)Oc3cc(C)oc(=O)c32)ccc1OC(=O)N1CCOCC1 (stereo not given) | inconclusive: -8.27% | –
O=C(NC(=S)Nc1ccc(CN2CCOCC2)cc1)c1ccc(-c2ccc(Br)cc2)o1 | inconclusive: -0.268% | –
CSc1ccc(S(=O)(=O)NCC(=O)OCC(=O)N(C)C2CCCCC2)cc1[N+](=O)[O-] | inconclusive | –
OC(CNC1CCCCC1)COCCOc1ccc(Br)cc1 (stereo not given) | – | inconclusive: 3.66 µM [activator, partial curve]
O=C(O)c1cnc2ccccc2n1 | – | inconclusive: 0.58 µM [activator, full curve]
COc1ccc(N(CC(=O)Nc2ccc(OC)cc2OC)S(=O)(=O)c2ccccc2)cc1 | inactive | –
CCOC(=O)c1c(C)c(C(=O)NCc2cccs2)c(C)n1CC | – | inconclusive: 13 µM [falling, partial curve]
CCOc1ccc(NC(=O)CNC(=O)c2ccco2)cc1 | inconclusive: 15.7% | –
Cc1cc(C(F)(F)F)n2ncc(C(=O)O)c2n1 | – | active: 14.6 µM
COc1cc(/C=C\C(=O)NCc2ccc3[nH]c(C)cc3c2)cc(OC)c1OC | inconclusive: 18.3% | –
CCNc1nc(NCC)nc(N/N=C(\C)c2ccc(OC)cc2)n1 | inconclusive: 45.9% | –
O=C(NCC(=O)N(c1cccnc1)C(C(=O)NC1CCCCC1)c1ccccc1)c1ccco1 (stereo not given) | – | inconclusive: 6.51 µM [activator, single point]
CCN(CC)c1ccc(NC(=S)NC(=O)Cc2ccccc2)cc1 | – | inconclusive: 0.0073 µM [falling, full curve, poor fit]
CC(=O)N1c2ccc(S(=O)(=O)N3CCC(C(=O)N4CCN(c5ccc(Cl)cc5)CC4)CC3)cc2CC1C (stereo not given) | inconclusive: 15.1% | –
O=C1N=C(N2CCOCC2)S/C1=C\c1ccc(OS(=O)(=O)c2ccccc2)cc1 | inconclusive: -0.809% | –
COc1ccc([C@@H]2CC=C(C(=O)O)CN2S(=O)(=O)c2ccc(Cl)cc2)cc1 | – | inconclusive: 2.59 µM [activator, partial curve]
CC(=O)C1=C(O)C(=O)N(c2ccccn2)C1c1ccc(Cl)cc1 (stereo not given) | inconclusive: 17.2% | –
O=C(Nc1cccc(C(F)(F)F)c1)C1CCN(S(=O)(=O)c2cnc[nH]2)CC1 | – | inconclusive: 2.91 µM [activator, partial curve, poor fit]
O=C(NCc1ccco1)C(c1ccc(F)cc1)N(CC1CCCO1)C(=O)Cn1nnc2ccccc21 (stereo not given) | inactive | –
COc1ccc(C(=O)Nc2oc(-c3ccccc3)c(-c3ccccc3)c2C#N)cc1OC | – | inconclusive: 3.66 µM [rising, full curve, poor fit]

Among those listed so far, 3 contain an NH in an aromatic ring:
Structure (SMILES) | lipid storage change, negative = inhibition | Potency
CC(C)CN(C(=O)CSc1n[nH]c(-c2cccs2)n1)C1CCS(=O)(=O)C1 (stereo not given) | inconclusive: -15.3% | –
COc1cc(/C=C\C(=O)NCc2ccc3[nH]c(C)cc3c2)cc(OC)c1OC | inconclusive: 18.3% | –
O=C(Nc1cccc(C(F)(F)F)c1)C1CCN(S(=O)(=O)c2cnc[nH]2)CC1 | – | inconclusive: 2.91 µM [activator, partial curve, poor fit]

(continued)

Structure (SMILES) | lipid storage change, negative = inhibition | Potency
COc1ccccc1OCC(=O)OCn1c(SC)nnc(C)c1=O | – | inconclusive: 1.84 µM [activator, single point]
N#Cc1ccccc1NCC(=O)N1CCN(S(=O)(=O)c2ccccc2)CC1 | inconclusive: 27.9% | –
COC(=O)c1ccc(CSc2nnc(CNC(=O)c3ccccc3F)o2)o1 | inconclusive: 16.2% | –
O=C(CN1C(=O)C2(OCCO2)c2ccccc21)c1ccc(F)cc1 | inconclusive: 24.5% [cytotoxic] | –
CCOC(=O)NNc1ccc(C(F)(F)F)cn1 | inconclusive: -25.3% | –
COc1ccc(NC(=S)NCc2cccs2)cc1OC | inconclusive: -5.07% | –
CCCNS(=O)(=O)c1cc(Cl)ccc1OC | inconclusive: -6.69% | –
Cc1cc(-c2cc(-c3ccc(Cl)cc3)nc(N)c2C#N)co1 | inconclusive: -20.6% | –
Cc1ccc(S(=O)(=O)N2CCc3cc4c(cc3C2C)OCCCO4)cc1 (stereo not given) | – | inconclusive: 29.1 µM [falling, single point]
CC1CCC(C(=O)NC(C(=O)Nc2ccccn2)C(C)C)CC1 (stereo not given) | inconclusive: -53.4% | –
O=C(c1ccc(NS(=O)(=O)c2cccc(F)c2)cc1)N1CCCCC1 | inconclusive: -20.9% | –
O=C(NCc1cccc(Cl)c1)C1CCC(=O)N(CCCN2CCCC2=O)C1 (stereo not given) | – | active: 1.84 µM
COc1cc(CNn2c(C)n[nH]c2=S)cc(Cl)c1OCC(=O)NC(C)(C)C | inconclusive: -100% | –
Cc1ccc(S(=O)(=O)NC2(C(F)(F)F)NC(=O)N(Cc3ccccc3)C2=O)cc1 (stereo not given) | inconclusive: 20.2% | –
O=C(CN(Cc1ccccc1Cl)C(=O)CNS(=O)(=O)c1ccccc1)NCC1CCCO1 (stereo not given) | inconclusive: -9.78% | –
NC(=O)CC(NC(=O)Cc1ccc(Br)cc1)c1ccc(NCc2ccc(F)cc2)c([N+](=O)[O-])c1 (stereo not given) | inconclusive: -31.4% | –
Cc1nn(-c2ccccc2)c(C)c1C(=O)N1CCN(S(=O)(=O)c2ccccc2)CC1 | inconclusive: -22.4% | –
CCC(=O)Nc1cccc(NC(=O)c2cccc([N+](=O)[O-])c2)c1 | inactive | –
CCCCc1nnc(NC(=O)CN2C(=O)C3CCCCC3C2=O)s1 (stereo not given) | inconclusive: 24.7% | –
O=C(NN=C1CCCC1)c1ccc(O)cc1O | – | inconclusive: 29.1 µM [activator, single point]
CC(=O)C(Cc1ccccc1)NC(=O)CN(C)Cc1ccccc1Cl (stereo not given) | – | inconclusive: 29.1 µM [falling, single point]
COCCNC(=S)Nc1ccc(S(=O)(=O)Nc2cnc3ccccc3n2)cc1 | inconclusive: -8.9% | –
CC1CCN(c2ccc([N+](=O)[O-])cc2C(=O)NCC2CCCO2)CC1 (stereo not given) | inconclusive: -38.6% | –
CCOC(=O)CSc1nc(C)c(Oc2ccc(Cl)cc2Cl)c(=O)[nH]1 | – | inconclusive: 0.461 µM [falling, full curve]
CCOc1ccc(C(=O)NC2CCN(C(=O)Nc3ccccc3OC)CC2)cc1 | – | inconclusive: 23.1 µM [cytotoxic, partial curve]
